# Data from patent US6841548B2, “Pharmaceutical preparations containing estra-1,3,5(10)-triene derivatives” (Schering AG, priority 1994, dated 2005).
# At least one structure is not confirmed: it was looked up by name or label, or the drawing left a doubt.
# Key:
# ovariectomated rats [1] = assay: Oral estrogenic effects: weights of adrenal glands in ovariectomated rats; assay type: in vivo, rat
# From the text: (§1) The laboratory animals, adult female rats (breeder: HSD/WIN:WU) were ovariectomated on day 14. Treatment started two weeks later by a single oral application per day of the respective test substance. The dosages given for esters refer to the steroid portion of the substances. The tests were made in three groups (A, B, C) at various points in time. This is why there is a deviation in control group values. The tests of series A, B, and C can therefore be compared among each other if the values for the respective control groups are taken into account.
# (§2) The procedure of allocating animals to groups was randomized. The experiment was carried out as a block test. The animals were weighed at the beginning and at the end of the experiment.
# (§3) The start of treatment was defined as day 1 (=d1), treatment was finished on day 7 (=d7); the animals were killed on day 8, various organs (uteri, adrenal glands, liver) were removed, weighed and deep-frozen (−196° C.) for further examination.
# ovariectomated rats [2] = assay: Oral estrogen treatment: serum IGF1 (somatomedin C), RIA; assay type: in vivo, rat; details: dose of 100 μg/animal
# From the text: as §1, §2, §3
# Blood was taken from the retrobulbar plexus under ether anaesthesia prior to treatment (d0), and on (d4) and (d8). IGF1, angiotensin I, cholesterol and HDL cholesterol were determined in the serum obtained.
# IGF1: RIA by bioMérieux Co.;
smiles,measurement,setting,value
"C[C@]12CC[C@@H]3c4ccc(O)cc4CC[C@H]3[C@@H]1CC[C@@H]2O [Example E2, estradiol]","Gains in adrenal gland weight depending on dosage, in words",ovariectomated rats [1],clearly lower increase rate as compared to EE
same,"Effect on IGF1 in the course of the experiment, in words",ovariectomated rats [2],Exception
